Laboratory results from PMC11449006.
No constants are given. Whether binding was seen depends on the method and setting. Binding seen in cells or lysates may run through a third protein. For some assays here: A result given as binding can be weak or reduced; the word gives no strength. Tags and fused reporters may be left off the sequences shown. Values belong to the binder of their own block, whether it stands above or below them.

Experiments:
[1] = target: nYFP-CEPA1 (Arabidopsis thaliana); experiment: split reporter; BiFC (MoBiFC vectors): nYFP (V2-D174) fused to mature CEPA1 and cYFP (G175-K239) fused to the mature candidates, AtRBCS cTP upstream; N. benthamiana leaves infiltrated with Agrobacterium, protoplasts after 3 d, confocal microscopy
[2] = target: CEPA1-nYFP (Arabidopsis thaliana); experiment: as above

binding [1]: binds
B1: PSA3-cYFP (protein, UniProt Q9M3C6 46-277)
chain: AYIEKPNSFSTFANKVIGSLPVIGLLARIISDEGGVGRDLVDFAEFRKRVGNKCTPDDSRAFYEFQQRRGKAGEPLYVLLCCWVAAVGAGLLKSEEILEGVTRVSISNDLEFEEQNFIALMTEARQRRAKLNIDAPTIPMELRVEKALEGIYACCFRRGLIEEEDEKLLKVMLIAVFPSVEKSEIERIIKEKATRVEEGGEEENVMAKRLPKEAIQMQMKDLEFLQQQNIES

binding [2]: no binding
B2: PPD1-cYFP (protein, UniProt O23403 105-287)
chain: STPVFREYIDTFDGYSFKYPQNWIQVRGAGADIFFRDPVVLDENLSVEFSSPSSSNYTSLEDLGSPEEVGKRVLRQYLTEFMSTRLGVKRQANILSTSSRVADDGKLYYQVEVNIKSYANNNELAVMPQDRVARLEWNRRYLAVLGVENDRLYSIRLQTPEKVFLEEEKDLRRVMDSFRVEKI
